Data reported in PubChem BioAssay AID624297 (National Center for Advancing Translational Sciences (NCATS), 2012).
About 6,200 (1.8%) of roughly 340,000 compounds were called active. This list was built around the results that the source calls inconclusive (neither active nor inactive); the mix of calls is not that of the screen. The call rests on the fitted dose curve; in most records, active means well fitted activation curve with a large enough effect; inconclusive means small, poorly fitted or top-dose-only effect; inactive means no such curve, though single readings can be large or run the other way. Potencies beside an inconclusive call are fits to weak or partial responses and may not hold up.

assay: A quantitative high throughput screen for small molecules that induce DNA re-replication in SW480 colon adenocarcinoma cells.; further: nearly all actives have a fitted effect of over 55% in size; on re-replication activation: % of control where 0% means no effect; conditions: Hoechst DNA content imaging, 48 h; re-replication activation: at 46.1 µM (top of the series) unless noted
Summary of the method: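 Image-based DNA-content assay: after two days of treatment, nuclei were labelled with the DNA dye Hoechst and imaged, and hits were compounds raising the count of nuclei showing high fluorescence intensity.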
Potency means the concentration at half of the fitted maximal effect.

| Structure (SMILES) | Potency | re-replication activation |
| --- | --- | --- |
| CCCCCCCCCC[n+]1cccc(C(=O)N(CC)CC)c1 | inconclusive: 18.4 µM [activator, single point] |  |
| COc1ccc(-c2ccc(C3C(C#N)=C(N)Oc4n[nH]c(C)c43)o2)cc1 (configuration not stated) | inconclusive: 29.1 µM [activator, single point] |  |
| O=C(O)c1ccc(-c2ccc(OS(=O)(=O)c3ccccc3F)cc2)cc1 | inactive |  |
| C[C@H](CO)N1C[C@H](C)[C@H](CN(C)S(=O)(=O)c2ccccc2)Oc2ccc(NC(=O)NC3CCCCC3)cc2CC1=O | inactive |  |
| COc1ccc(C(=O)OCC(=O)N2CCN(S(=O)(=O)c3ccc(C)cc3)CC2)cc1[N+](=O)[O-] | inactive |  |
| COc1ccc(OC)c(NC(=O)C(=O)c2cn(CC(=O)N3CCCC3)c3ccccc23)c1 | inactive |  |
| COCCn1nnnc1C(c1ccccn1)N1CCN(c2cc(Cl)ccc2C)CC1 (configuration not stated) | inactive |  |
| Cc1[nH]c2ccccc2c1/C=N/NC(=O)c1cccc(Br)c1 | inactive |  |
| N#CC1=C(N)NC(SCC(=O)c2ccc(Br)cc2)=C(C#N)C12CCCCC2 | inconclusive: 20.6 µM [activator, partial curve, poor fit] |  |
| CC1(C)OC2CC3C4CCC5=CC(=O)CCC5(C)C4(F)C(O)CC3(C)C2(C(=O)CO)O1 (configuration not stated) | inactive |  |
| CCOc1ccc(NC(=O)Nc2cccnc2)cc1 | inconclusive: 0.82 µM [activator, full curve, poor fit] |  |
| O=C(c1ccc(Cl)cc1)c1c[nH]c(C(=O)NNc2ccccc2)c1 | inconclusive: 11.6 µM [activator, partial curve, poor fit] |  |
| COc1ccc(S(=O)(=O)CCc2nnc(NC(=O)c3ccc(F)cc3)s2)cc1 | inconclusive: 18.4 µM [activator, single point] |  |
| COc1ccc(-c2nc(NC(=O)c3[nH]c(C)c(C(C)=O)c3C)sc2C)cc1 | inactive |  |
| O=C(OCc1ccccc1)N1C=CC2CC1c1c(Cl)cccc12 (configuration not stated) | inactive |  |
| Cc1nn(CC(=O)NCCCN2CCC(N3CCCCC3)CC2)c(=O)c2cc(-c3ccccc3)nn12 | inconclusive: 29.1 µM [activator, partial curve, poor fit] |  |
| O=[N+]([O-])c1c(NCCCO)cc(SCc2ccco2)c2nonc12 | inconclusive: 22.4 µM [activator, single point] |  |
| CC12CCC(C(=O)OC3CCCCC3)(OC1=O)C2(C)C (configuration not stated) | inactive |  |
| COc1ccc(-c2cc(C3CC3)nc3sc(C#N)c(N)c23)cc1 | active: 13 µM |  |
| CCCCCN(C(=O)CSc1n[nH]c(-c2ccc(C)cc2)n1)c1c(N)n(CCCC)c(=O)[nH]c1=O | inconclusive: 14.6 µM [activator, single point] |  |
| O=C(NCCCc1ccccc1)c1ccc(Br)o1 | inconclusive: 8.2 µM [activator, partial curve, poor fit] |  |
| CCC1CCc2c([nH]c3ccccc3c2=O)O1 (configuration not stated) | inconclusive: 0.517 µM [activator, full curve, poor fit] |  |
| O=C(Nc1cccc(Cl)c1)c1ccccc1 | inactive |  |
| COc1ccccc1NC(=S)NCC1CCCCC1 | active: 9.2 µM |  |

Record cards (already shown):
O=C(O)c1ccc(-c2ccc(OS(=O)(=O)c3ccccc3F)cc2)cc1 as listed: Potency: inactive
O=C(OCc1ccccc1)N1C=CC2CC1c1c(Cl)cccc12 (configuration not stated) as listed: Potency: inactive
CCCCCCCCCC[n+]1cccc(C(=O)N(CC)CC)c1 as listed: Potency: inconclusive: 18.4 µM [activator, single point]
O=C(Nc1cccc(Cl)c1)c1ccccc1 as listed: Potency: inactive

Additional records.

| Structure (SMILES) | Potency | re-replication activation |
| --- | --- | --- |
| O=C1NN(c2ccc(F)cc2)C(=O)/C1=C\C=C\c1ccco1 | inconclusive: 29.1 µM [activator, partial curve, poor fit] |  |
| O=C(NCc1cccnc1)C1CCC(c2ccc(Cl)cc2)CC1 (configuration not stated) | inactive |  |
| COC(=O)c1ccc(NC(=S)NCCC2=CCCCC2)cc1 | inactive |  |
| O=c1cc(-c2ccc([N+](=O)[O-])cc2)c2ccc(O)cc2o1 | inconclusive: 4.11 µM [activator, full curve, poor fit] |  |
| CCCn1c2c(c(O)c(C(=O)Nc3nccs3)c1=O)CCCC2 | inactive |  |
| COc1ccccc1NC(=O)COC(=O)C1CC2CCCC(C1)C2=O (configuration not stated) | inactive |  |
| COc1ccc(-c2cc(-c3cccs3)c(C#N)c(SCC(=O)NCc3ccccc3)n2)cc1 |  | inactive: 5.5% [at 9.22 µM] |
| Cc1ccccc1-c1nn(-c2ccc(F)cc2F)cc1CNCCCN(C)C | inconclusive: 20.6 µM [activator, single point] |  |
| COc1ccc(C)cc1Nc1n[n+](-c2ccccc2)c(-c2ccc(N(C)C)cc2)s1 | inconclusive: 6.51 µM [activator, single point] |  |
| CC(C)c1ccc(OCc2ccc(C(=O)N(C)C)o2)cc1 | inconclusive: 18.4 µM [activator, single point] |  |
| Clc1ccc2c(NCc3ccccn3)ncnc2c1 | inactive |  |
| O=C(NNc1ccc(F)cc1F)C1CCC1 | inconclusive: 7.31 µM [activator, partial curve, poor fit] |  |
| COCCCNC(=O)CC(C)c1ccccc1 (configuration not stated) | inconclusive: 5.8 µM [activator, single point] |  |
| O=C(Cn1cnc(S(=O)(=O)N2CCCC2)c1)Nc1cccc(Br)c1 | inconclusive: 1.46 µM [activator, partial curve, poor fit] |  |
| COc1ccc(S(=O)(=O)N2CCN(C3CCCC(C)C3)CC2)cc1 (configuration not stated) | inconclusive: 1.12 µM [activator, partial curve, poor fit] |  |
| O=C(Cn1nc(-c2ccccc2)ccc1=O)NCCN1CCN(Cc2ccccc2)CC1 | inactive |  |
| NC(N)=N/N=C/c1ccc(OCc2ccccc2)c(OCc2ccccc2)c1 | inactive |  |
| CCn1nc(NC(=O)c2ccco2)c2cc3cc(C)ccc3nc21 | active: 18.4 µM |  |
| CCN(CC)C(c1ccc(C)cc1)c1nnnn1C1CCCCC1 (configuration not stated) | inactive |  |
| Cc1nn(C)cc1/C=N\NC(=O)c1ccc2c(c1)c(C)c(C)n2Cc1ccccc1 | inactive |  |
| CCOCCCNC(=S)N1CCCN(c2nc3cc(C)c(C)cc3cc2C#N)CC1 | inconclusive: 14.6 µM [activator, partial curve, poor fit] |  |
| O=C1NC[C@H](Cc2ccccc2)N(C[C@H]2CCCN2C[C@H](Cc2ccccc2)N2C[C@H](Cc3ccccc3)N(CC3CCCCCC3)C(=O)C2=O)C1=O | inconclusive: 0.164 µM [activator, full curve, poor fit] |  |
| COc1ccc(-n2cnc3cc(C(=O)NC4CCCC4)ccc32)cc1 | inconclusive: 29.1 µM [activator, single point] |  |
